Experimental data as given in US4209439A, “Stabilization of vinyl resins” (priority 1977, dated 1980).

Key:
[1] = antioxidising power on a vinyl resin, conventional oven at […] C.; parameters: key: The symbol "B" indicates "burnt"; the index "+" signifies that the colour is disposed half-way between the lower unit and the upper half-unit; the index "-" signifies that the colour is between the lower half-unit and the upper unit; >2 means that it is between 2 and 2^+
[2] = lubricating power, adhesion time on calender-type mixer (Example 32); settings: 0.3 p.c.r.; 165°-170° C.
[3] = static thermostability of polyvinyl chloride, oven at 210° C.; parameters: key: The symbol "B" indicates "burnt"; the index "+" signifies that the colour is disposed half-way between the lower unit and the upper half-unit; the index "-" signifies that the colour is between the lower half-unit and the upper unit; >2 means that it is between 2 and 2^+
[4] = static thermostability of polyvinyl chloride, oven at […] C.; parameters: key: The symbol "B" indicates "burnt"; the index "+" signifies that the colour is disposed half-way between the lower unit and the upper half-unit; the index "-" signifies that the colour is between the lower half-unit and the upper unit; >2 means that it is between 2 and 2^+
[5] = photostabilising, flexible vinyl chloride-vinyl acetate copolymer (Example 6); settings: 0.3 part
[6] = equimolecular, 1.55×1^-3 mole, 0 min
[7] = equimolecular, 1.55×1^-3 mole, 6 min
[8] = equimolecular, 1.55×1^-3 mole, 12 min
[9] = equimolecular, 1.55×1^-3 mole, 18 min
[10] = equimolecular, 1.55×1^-3 mole, 24 min
[11] = equimolecular, 1.55×1^-3 mole, 27 min
[12] = equimolecular, 1.55×1^-3 mole, 30 min
[13] = equimolecular, 1.55×1^-3 mole, 33 min
[14] = equimolecular, 1.55×1^-3 mole, 36 min

SMILES | colour ([3]; Ex. 10, 0.3 part, 0 min) [Gardner] | colour ([3]; Ex. 10, 0.3 part, 3 min) [Gardner] | colour ([3]; Ex. 10, 0.3 part, 6 min) | colour ([3]; Ex. 10, 0.3 part, 9 min) | colour ([3]; Ex. 10, 0.3 part, 18 min) | colour ([4]; 0.3 part, 0 min) [Gardner] | colour ([4]; 0.3 part, 6 min) [Gardner] | colour ([3]; Ex. 10, 0.3 part, 12 min) [Gardner] | colour ([3]; Ex. 10, 0.3 part, 15 min) | colour ([4]; 0.3 part, 12 min) [Gardner] | colour ([4]; 0.3 part, 18 min) [Gardner] | colour ([4]; 0.3 part, 24 min) [Gardner] | colour ([4]; 0.3 part, 27 min) [Gardner] | colour ([4]; 0.3 part, 30 min) [Gardner] | colour ([4]; 0.3 part, 33 min) [Gardner] | colour ([4]; 0.3 part, 36 min) [Gardner] | colour ([4]; 0.3 part, 39 min) [Gardner] | colour ([4]; 0.3 part, 42 min) | Coloration ([5]; Test B, after 24 hours) [degrees Gardner] | Coloration ([5]; Test B, time 0) [degrees Gardner] | further results
Cc1cc(C(C)(C)C)c(O)c(C(C)(C)C)c1 [BHT, Di-tert.-2,6-butyl-4-methyl phenol, reference compound] |  |  |  |  |  |  |  |  |  |  |  |  |  |  |  |  |  |  |  |  | Coloration ([1]; 0.05, 80 min): B; Coloration ([1]; 0.1, 80 min): B; Coloration ([1]; 0.2, 80 min): B; Coloration ([1]; 0.3, 80 min): B; Coloration ([1]; 0.4, 80 min): B; Coloration ([1]; 0.5, 80 min): B; Coloration ([1]; last pair, concentration not given, 80 min): B
COC(=O)C1=C(C)NC(C)=C(C(=O)OC)C1 [L.28504, 2,6-Dimethyl-3,5-dicarbomethoxy-1,4-dihydropyridine] | 1 | 1 | 2 Gardner and 1 Gardner | 3 Gardner and 2.5 Gardner | B | 1 | 1 |  |  |  |  |  |  |  |  |  |  |  |  |  | Coloration ([1]; 0.05, 80 min): B; Coloration ([1]; 0.1, 80 min): B; Coloration ([1]; 0.2, 80 min): B; Coloration ([1]; 0.3, 80 min): B; Coloration ([1]; 0.4, 80 min): B; Coloration ([1]; 0.5, 80 min): B; Coloration ([1]; last pair, concentration not given, 70 min): B; Adhesion time [2]: 12 min; colour [4, 6]: 1 Gardner; colour [4, 7]: 1 Gardner; colour [4, 8]: 1 Gardner; colour [4, 9]: 4 Gardner; colour [4, 10]: 5 Gardner; colour [4, 11]: 8 Gardner; colour [4, 12]: 11 Gardner; colour [4, 13]: 15 Gardner; colour [4, 14]: B; Coloration ([5]; Test A, after 24 hours): 1 degrees Gardner; Coloration ([5]; Test A, time 0): 1 degrees Gardner
CCCCCCCCCCCCOC(=O)C1=C(C)NC(C)=C(C(=O)OCCCCCCCCCCCC)C1 [L.28507, 2,6-Dimethyl-3,5-dicarbododecyloxy-1,4-dihydropyridine] | 1 | 1 | 2 Gardner | 6 Gardner | B | 1 | 2 | 8 | 19 Gardner | 2 | 7 | 11 | 13 | 14 | 15 | 15 | 18 | B | 1 | 1 | colour ([3]; 0.1 p.c.r., 0 min): 2 Gardner; colour ([3]; 0.1 p.c.r., 2 min): 2 Gardner; colour ([3]; 0.1 p.c.r., 4 min): 2 Gardner; colour ([3]; 0.1 p.c.r., 6 min): 2 Gardner; colour ([3]; 0.1 p.c.r., 8 min): 3 Gardner; colour ([3]; 0.1 p.c.r., 10 min): 4 Gardner; colour ([3]; 0.1 p.c.r., 12 min): 10.5 Gardner; colour ([3]; 0.2 p.c.r., 0 min): 1 Gardner; colour ([3]; 0.2 p.c.r., 2 min): 1 Gardner; colour ([3]; 0.2 p.c.r., 4 min): 1 Gardner; colour ([3]; 0.2 p.c.r., 6 min): 2 Gardner; colour ([3]; 0.2 p.c.r., 8 min): 2 Gardner; colour ([3]; 0.2 p.c.r., 10 min): 3 Gardner; colour ([3]; 0.2 p.c.r., 12 min): 7.5 Gardner; colour ([3]; x = 0.1 to 0.3 p.c.r., 0 min): 1 Gardner; colour ([3]; x = 0.1 to 0.3 p.c.r., 3 min): 1 Gardner; colour ([3]; x = 0.1 to 0.3 p.c.r., 6 min): 2 Gardner; colour ([3]; x = 0.1 to 0.3 p.c.r., 9 min): 2 Gardner; colour ([3]; x = 0.1 to 0.3 p.c.r., 12 min): 3 Gardner
COc1ccc(OC(=O)C2=C(C)NC(C)=C(C(=O)Oc3ccc(OC)cc3)C2)cc1 [L.28541] | 1 | 1 | 1.5 Gardner | 3 Gardner | B |  |  | 5 | 11 Gardner |  |  |  |  |  |  |  |  |  |  |  | colour [4, 6]: 1 Gardner; colour [4, 7]: 1 Gardner; colour [4, 8]: 2 Gardner; colour [4, 9]: 7 Gardner; colour [4, 10]: 9 Gardner; colour [4, 11]: 9 Gardner; colour [4, 12]: 10 Gardner; colour [4, 13]: 16 Gardner; colour [4, 14]: B; Coloration ([5]; Test A, after 24 hours): 4 degrees Gardner; Coloration ([5]; Test A, time 0): 1 degrees Gardner
CCCCCCCCOC(=O)C1=C(C)NC(C)=C(C(=O)OCCCCCCCC)C1 [L.28502] |  |  |  |  |  | 1 | 1 |  |  | 2 | 3 | 4 | 6 | 7 | 8.5 | 9 | 11 | 15 Gardner | 1 | 1 | colour ([3]; 0.1 p.c.r., 0 min): 2 Gardner; colour ([3]; 0.1 p.c.r., 2 min): 2 Gardner; colour ([3]; 0.1 p.c.r., 4 min): 2 Gardner; colour ([3]; 0.1 p.c.r., 6 min): 2 Gardner; colour ([3]; 0.1 p.c.r., 8 min): 3 Gardner; colour ([3]; 0.1 p.c.r., 10 min): 6 Gardner; colour ([3]; 0.1 p.c.r., 12 min): 11 Gardner; colour ([3]; 0.2 p.c.r., 0 min): 1 Gardner; colour ([3]; 0.2 p.c.r., 2 min): 1 Gardner; colour ([3]; 0.2 p.c.r., 4 min): 1 Gardner; colour ([3]; 0.2 p.c.r., 6 min): 2 Gardner; colour ([3]; 0.2 p.c.r., 8 min): 2 Gardner; colour ([3]; 0.2 p.c.r., 10 min): 3 Gardner; colour ([3]; 0.2 p.c.r., 12 min): 5 Gardner
CC1=C(C(=O)OC(C)C)CC(C(=O)OC(C)C)=C(C)N1 [L.28506] | 1 | 1 | 2 Gardner | 5 Gardner | B | 1 | 1 | 11 | 19 Gardner | 3 | 3 | 6 | 12 | 13 | 14 | 15 | 15 | 17 Gardner | 2 | 1 | 
CC1=C(C(=O)OC2CCCCC2)CC(C(=O)OC2CCCCC2)=C(C)N1 [L.28508] | 1 | 1 | 3 Gardner | 5 Gardner |  | 1 | 1 | 14 | B | 3 | 5 | 8 | 13 | 16 | 18 | 18 | 18 | 18 Gardner | 2 | 1 | 

Values joined by “and” are separate entries in the source; they are usually repeats but may differ in a detail not shown here. Equal entries are not always repeated.
